Measured values from patent publication US20050064593A1.
No constants are given. Whether binding was seen depends on the method and setting. Some binding calls cover weakened binding; strength is not graded here.

Sequences of proteins named here, by UniProt entry; tags and fusion partners are left off. A change or cut given only in a name is not applied to a line headed by its entry.
UniProt P97287: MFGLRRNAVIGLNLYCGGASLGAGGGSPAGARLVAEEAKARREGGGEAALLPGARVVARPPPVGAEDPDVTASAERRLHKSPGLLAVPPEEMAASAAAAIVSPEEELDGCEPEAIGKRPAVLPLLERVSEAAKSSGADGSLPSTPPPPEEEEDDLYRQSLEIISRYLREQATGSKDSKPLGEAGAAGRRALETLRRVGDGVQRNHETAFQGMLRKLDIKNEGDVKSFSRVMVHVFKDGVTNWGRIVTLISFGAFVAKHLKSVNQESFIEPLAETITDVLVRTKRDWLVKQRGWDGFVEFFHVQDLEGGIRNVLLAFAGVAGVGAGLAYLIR
UniProt Q91ZE9: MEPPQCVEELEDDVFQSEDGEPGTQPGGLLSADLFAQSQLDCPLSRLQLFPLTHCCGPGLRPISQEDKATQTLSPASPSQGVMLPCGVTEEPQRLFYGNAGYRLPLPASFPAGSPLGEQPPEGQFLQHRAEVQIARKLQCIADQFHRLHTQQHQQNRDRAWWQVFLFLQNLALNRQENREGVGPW

Molecular target: Mcl-1 clones isolated from a mouse embryo cDNA library with Bmf as bait (mouse) (UniProt P97287)
Test: yeast 2-hybrid screen

“Bmf (Bcl-2 modifying factor), mouse, wild-type, as used in the yeast 2-hybrid system (from UniProt Q91ZE9 1-185)” was tested, and the binding was “binds”.
